Assays:
Details in all cases: Selectivity Index, ratio CC50/EC50
[1] = tested on: NCI H1395; experiment: MTT cell proliferation assay, NCI H1395
[2] = tested on: NCI H2052; experiment: MTT cell proliferation assay, NCI H2052
[3] = tested on: ZR-75-1; experiment: MTT cell proliferation assay, ZR-75-1; type: cell-based
Method: The antitumor activities of the compounds of the invention were evaluated by a cellular proliferation assay. The MTT [3-(4,5-dimethylthiazol-2-yl)-2,5-diphenyltetrazolium bromide] cell proliferation assay, first described by Mosmann (Mosmann T., “Rapid colorimetric assay for cellular growth and survival: application to proliferation and cytotoxicity assays,” J. Immunol. Methods 1983 Dec. 16; 65(1-2):55-63, and incorporated by reference in its entirety) is based on the ability of active mitochondrial reductase enzymes from viable cells to cleave the tetrazolium rings of the pale yellow MTT. The cleavage reaction form a purple formazan crystals which is largely impermeable to cell membranes resulting in its accumulation within healthy cells. Solubilisation of the cells by addition of a detergent liberates and solubilizes the formazan crystals. The number of surviving cells is directly proportional to the level of the formazan product created. The color can then be quantified spectrophotometrically. The production of purple formazan in cells treated with a compound is measured relative to the production in control cells, and dose-response curves can be generated. This assay measures the cell proliferation rate and conversely, when metabolic events lead to apoptosis or necrosis, the reduction in cell viability, thus also allowing the evaluation of the cytotoxicity of the analogues synthesized in the laboratory.
(§1) For Tables 3 and 4, the assays were performed with 1% DMSO. The abbreviation “n.d.” means “not determined.” The values EC50, CC50, and SI have the following definitions.
Cell growth equals total cell count without any inhibitor after 72 hours minus initial cell count. Total cell counts after 72 hrs of growth range from 230 to 346% of initial cell counts depending on the cell line.
Total cell counts after 24 hrs of growth range from 103 to 109% of initial cell counts depending on the cell line.
(§2) SI: Selectivity Index is the ratio CC50/EC50.

[4] = tested on: PFSK-1; experiment: MTT cell proliferation assay, PFSK-1; type: cell-based
Method: The antitumor activities of the compounds of the invention were evaluated by a cellular proliferation assay. […] The cleavage reaction form a purple formazan crystals which is largely impermeable to cell membranes resulting in its accumulation within healthy cells. Solubilisation of the cells by addition of a detergent liberates and solubilizes the formazan crystals. The number of surviving cells is directly proportional to the level of the formazan product created. The color can then be quantified spectrophotometrically. The production of purple formazan in cells treated with a compound is measured relative to the production in control cells, and dose-response curves can be generated. This assay measures the cell proliferation rate and conversely, when metabolic events lead to apoptosis or necrosis, the reduction in cell viability, thus also allowing the evaluation of the cytotoxicity of the analogues synthesized in the laboratory.
as §1
Cell growth equals total cell count without any inhibitor after 72 hours minus initial cell count.
as §2

Compound | SI [1] | SI [2] | SI [3] | SI [4]
COC(=O)C1(C)C[C@@H](n2ccc(=O)[nH]c2=O)O[C@@H]1CO (mixture of isomers) [LCB-1002] | 44.8 | 3.0 |  | 
CC1(CO)C[C@@H](n2ccc(=O)[nH]c2=O)O[C@@H]1CO (mixture of isomers) [LCB-1003] | 6.0 | 53 |  | 
CC1(C(N)=O)CC(n2cc(F)c(N)nc2=O)O[C@@H]1CO (mixture of isomers) [LCB-1030] |  | >1.0 |  | 
Cc1cn([C@H]2CC(C)(CO)[C@@H](CO)O2)c(=O)[nH]c1=O (mixture of isomers) [LCB-1007] | 3.6 |  | >1.1 | 
COC(=O)C1(C)C[C@@H](n2cc(C)c(=O)[nH]c2=O)O[C@@H]1CO (mixture of isomers) [LCB-1001] | >7.4 | 2.3 |  | 
COC(=O)C1(C)C[C@H](n2cc(F)c(=O)[nH]c2=O)O[C@@H]1CO (mixture of isomers) [LCB-1015, 5-(5-Fluoro-2,4-dioxo-3,4-dihydro-2H-pyrimidin-1-yl)-2-hydroxymethyl-3-methyl-tetrahydro-furan-3-carboxylic acid methyl ester] |  |  | >1.1 | >1.3
COC(=O)C1(C)C[C@H](n2cc(C)c(=O)[nH]c2=O)O[C@@H]1CO (mixture of isomers) [LCB-1000] | >2.2 | 2.6 |  | 
Cc1cn([C@@H]2CC(C)(CO)[C@@H](CO)O2)c(=O)[nH]c1=O (mixture of isomers) [LCB-1004] | >1.5 |  | >1.2 | 
COC(=O)C1(C)CC(n2cc(C)c(=O)[nH]c2=O)OC1CO (racemic) [LCB-1010, (±) methyl 2-(hydroxymethyl)-3-methyl-5-(5-methyl-2,4-dioxo-3,4-dihydropyrimidin-1(2H)-yl)tetrahydrofuran-3-carboxylate] |  |  | >2.8 | 
CCOC(=O)[C@@H]1O[C@H](n2cc(F)c(=O)[nH]c2=O)CC1(C)C(=O)OCC (stereo in doubt) [LCB-1024, (2R,5S)-diethyl5-(5-fluoro-2,4-dioxo-3,4-dihydropyrimidin-1(2H)-yl)-3-methyltetrahydrofuran-2,3-dicarboxylate] | >2.7 |  |  | >2.4
COC(=O)c1cn([C@H]2S[C@@H](CO)C(O)[C@@H]2O)nn1 (some centres unmarked) [LCB-1013] |  |  | >1.3 | >1.1
